The nature of the test: IkB Signaling. Conditions: ABC-DLBCL IkBa-CBG/CBR dual luciferase ratio (green luciferase fused to IkBa over red control in OCI-Ly3 lymphoma cells), 4 h. In outline:
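In this assay, an IκBα–CBG68 fusion accumulates when IKK-driven degradation is blocked; native CBR normalizes for cell number. OCI-Ly3 cells were treated 4 h with compound and doxycycline, then green and red light read after Chroma-Glo addition.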

The mark [1] stands for this setting: measured here: control luc red channel unless noted.
[2] abbreviates: measured here: IkB-luc green channel.
The mark [3] stands for this setting: measured here: control luc red channel.

The other results are listed elsewhere or left out. Further columns of the screen follow, without active or inactive calls. Most of these compounds were active or inconclusive in the main read-out, so they are no random draw. The note in brackets gives the kind of curve behind each potency; many fits are weak.

As to `CC1CCCN(C(=O)Cn2c(=O)oc3cc(S(=O)(=O)N4CCCCC4)ccc32)C1` (configuration not stated), the concentration at half-maximal activity (AC50) under setting [1] is 25.1 µM [falling, single point].

As to `O=S(=O)(Nc1cccc(-c2nc3cccnc3s2)c1)c1ccc2c(c1)OCCO2`, the half-maximal activity concentration (AC50) under setting [2] was 15.8 µM [falling, partial curve] and the half-maximal activity concentration (AC50) under setting [3] is 7.94 µM [falling, full curve, poor fit].

With `COc1cccc(NC(=O)c2sc3nc(N4CCOCC4)c4c(c3c2N)CC(C)(C)OC4)c1`, the AC50 under setting [1] is 10 µM [falling, partial curve].

For `COc1cc(NC(=O)C(CC(C)C)NS(=O)(=O)c2ccc3c(c2)CCCC(=O)N3)cc(OC)c1` (configuration not stated), the AC50 under setting [1] was 20 µM [falling, partial curve].

As to `COc1ccc(CNC(=O)c2cc3c(-c4ccccc4F)nn(C)c3s2)c(OC)c1`, the AC50 under setting [1] is 10 µM [falling, partial curve].

As for `Cc1ccc(C)c(N2CCN(C(=O)c3cnc4c(-c5ccccc5)c(C)nn4c3C)CC2)c1`, the AC50 under setting [1] is 10 µM [falling, partial curve].

Regarding `COc1cccc(NC(=O)Cn2cc(C(=O)C3CCCCC3)c3ccccc32)c1`, the half-maximal activity concentration (AC50) under setting [1] was 12.6 µM [falling, partial curve].

With `CCOC(=O)c1c(NC(C)=O)c2c3c(sc2n1Cc1nc(-c2ccccc2OCC)oc1C)CCCC3`, the concentration at half-maximal activity (AC50) under setting [1] is 39.8 µM [falling, single point].

As to `COc1cccc(CNC(=O)CN2C(=O)N(c3cc(C)ccc3C)S(=O)(=O)c3ccccc32)c1OC`, the AC50 under setting [1] was 15.8 µM [falling, partial curve].

On to `Cc1ccc(C)c(CN2C(=O)c3ccccc3S(=O)c3ccc(C(=O)NCc4ccccc4Cl)cc32)c1` (configuration not stated), for which the concentration at half-maximal activity (AC50) under setting [1] was 15.8 µM [falling, partial curve].

For the compound `O=c1onc2cnc3ccccc3n12`, under setting [1], the AC50 is 25.1 µM [rising, partial curve] [measured here: IkB-luc green channel].

For `COc1cc(C)c(Cl)cc1S(=O)(=O)NCCc1c(C)[nH]c2ccccc12`, the concentration at half-maximal activity (AC50) under setting [1] is 25.1 µM [falling, single point].

In the case of `COc1ccc2c(c1)CCc1c(C(=O)N3CCCc4ccccc43)noc1-2`, under setting [1], the AC50 is 7.94 µM [falling, partial curve].

On to `Cc1nc2c(c(C)c1CCC(=O)Nc1cccc(C(F)(F)F)c1)c(=O)n(C)c(=O)n2C`, for which the AC50 under setting [1] is 20 µM [falling, partial curve].

Take `CC1CCCN(S(=O)(=O)c2cc3c(cc2Cl)NC(=O)CO3)C1` (configuration not stated): under setting [1], the AC50 is 0.1 µM [falling, full curve].

For the compound `COc1ccc(C(=O)Nc2ccccc2C(=O)OCc2cc(=O)n3c4c(sc3n2)CCCC4)cc1`, under setting [1], the AC50 is 15.8 µM [rising, partial curve].

With `COc1cc(OC)c(Nc2nc3ccc(C)cc3n3nnnc23)cc1Cl`, the concentration at half-maximal activity (AC50) under setting [1] was 7.94 µM [falling, partial curve].

In the case of `O=C(CCC(=O)N1CC2CCCN2c2ccccc21)NCc1ccccc1Cl` (configuration not stated), the concentration at half-maximal activity (AC50) under setting [1] is 31.6 µM [falling, partial curve].

Consider `COCCCNC(=O)c1ccc2c(c1)N=C(C)c1c(C)ccc(C)c1S2`, for which, under setting [1], the AC50 is 0.251 µM [rising, full curve].

With `COc1ccc(N2CCN(c3ccc(-c4nc(-c5ccccc5C)no4)cc3[N+](=O)[O-])CC2)cc1`, under setting [1], the AC50 was 3.98 µM [falling, single point].

In the case of `O=S(=O)(c1cccc(-c2nnc(SCc3nc4ccccc4s3)o2)c1)N1CCOCC1`, the AC50 under setting [1] was 1.58 µM [falling, partial curve].

In the case of `Cc1ccc(-c2nnc(Nc3ccc(Br)cc3)c3ccccc23)cc1S(=O)(=O)N1CCOCC1`, the concentration at half-maximal activity (AC50) under setting [1] is 2 µM [falling, partial curve].

Regarding `COc1ccc(-n2c(=O)c3sc4ccccc4c3n(CC(=O)Nc3cccc(C)c3)c2=O)cc1`, the half-maximal activity concentration (AC50) under setting [1] is 5.01 µM [falling, partial curve].

With `Cc1ccc(NC(=O)C(Cc2ccccc2)NS(=O)(=O)c2ccc3c(c2)oc(=O)n3C)c(Cl)c1` (configuration not stated), under setting [1], the AC50 is 25.1 µM [rising, single point].

Turning to `Cc1cccc(-n2c(SCc3cc(=O)n4ccsc4n3)nc3ccccc32)c1`, the AC50 under setting [1] is 20 µM [falling, partial curve].

Regarding `COc1ccccc1NC(=O)c1cc(S(=O)(=O)N(C)C2CCCCC2)ccc1F`, under setting [1], the AC50 was 20 µM [falling, partial curve].

On to `CCOC(=O)N1CCc2c(sc3c2c(=O)n(CCc2ccccc2)c(=O)n3Cc2cc(C)ccc2C)C1`, for which the AC50 under setting [1] is 10 µM [falling, partial curve].

Regarding `CCOc1ccccc1NC(=O)c1cn(C2CCCC2)c(=O)c2c1c1ccccc1n2C`, under setting [1], the concentration at half-maximal activity (AC50) is 7.94 µM [falling, partial curve].

Turning to `COc1ccccc1NC(=O)C1=C(C)Nc2nc(SCc3ccccc3)nn2C1c1ccccn1` (configuration not stated), the AC50 under setting [1] was 0.316 µM [falling, full curve].

Turning to `CCN(CC)S(=O)(=O)c1ccc2c(c1)N(CC(=O)NCCc1ccc(OC)c(OC)c1)C(=O)CO2`, the concentration at half-maximal activity (AC50) under setting [1] was 39.8 µM [falling, partial curve, poor fit].

Consider `CC1CCCCN1C(=O)CSc1nnc(-c2c[nH]c3ccccc23)o1` (configuration not stated), for which the AC50 under setting [1] was 15.8 µM [falling, partial curve].

Turning to `Cc1cc(Nc2cc(F)ccc2C)nc(-n2nc(C)cc2C)n1`, the AC50 under setting [1] is 12.6 µM [falling, partial curve].

Turning to `COc1cc(NC(=O)Cn2nc3c(cc2=O)CC(C)CC3)cc(OC)c1OC` (configuration not stated), under setting [1], the half-maximal activity concentration (AC50) was 0.2 µM [falling, full curve, poor fit].

For `CN(C)S(=O)(=O)N(CC(=O)NCCSc1ccccc1)c1ccccc1`, the AC50 under setting [1] was 15.8 µM [falling, partial curve].

`Cc1c(C(=O)N2CCC(C)CC2)c(S(=O)(=O)Nc2ccc(OC(F)(F)F)cc2)c(C)n1C`: the AC50 under setting [1] was 39.8 µM [falling, single point].

As for `COc1ccc2[nH]cc(CCN=C(NC(=O)c3ccccc3C)Nc3nc(C)cc(C)n3)c2c1`, the half-maximal activity concentration (AC50) under setting [1] was 10 µM [falling, partial curve, poor fit].

Consider `O=C(Nc1ccc(C(F)(F)F)cc1)C(Cc1ccccc1)n1cccc1` (configuration not stated), for which the concentration at half-maximal activity (AC50) under setting [1] is 31.6 µM [falling, partial curve].

Consider `O=C(NCCCN1CCN(c2ccccc2F)CC1)c1ccc2nc(N3CCCCC3)sc2c1`, for which the half-maximal activity concentration (AC50) under setting [1] was 20 µM [falling, partial curve].

In the case of `O=C(NCc1ccco1)C1CCN(C(=O)c2cc3sccc3n2Cc2ccc(F)cc2)CC1`, the AC50 under setting [1] was 15.8 µM [falling, partial curve].

For the compound `Cc1cc(NC(=O)c2ccc(NC(=O)CCS(=O)(=O)c3cccs3)cc2)ccc1Br`, the AC50 under setting [1] was 3.16 µM [falling, full curve].

`Cc1c(CCNC(=O)C(C)(C)C)sc2nc(-c3ccc(F)cc3)nn12`: under setting [1], the AC50 was 31.6 µM [falling, single point].

As to `COc1ccccc1NC(=O)C1=C(C)Nc2nc(SCc3ccccc3)nn2C1c1ccncc1` (configuration not stated), the half-maximal activity concentration (AC50) under setting [1] is 0.251 µM [falling, partial curve].

For the compound `COc1ccc(Cl)cc1NC(=O)CCn1c(=O)oc2ccccc21`, the AC50 under setting [1] is 39.8 µM [falling, single point].

In the case of `c1cc2c(cc1C1CCCCC1)c1c3n2CCN[C@H]3CCC1`, the AC50 under setting [1] was 31.6 µM [falling, partial curve].

For the compound `CCN(C(=O)c1cc2c(s1)-c1ccccc1OC2)c1cccc(C(F)(F)F)c1`, the AC50 under setting [1] was 31.6 µM [falling, single point].

For `O=C(CSc1nccn1Cc1ccccc1)Nc1ccc2c(c1)OCCO2`, the AC50 under setting [1] was 1 µM [rising, single point].

Consider `Cc1ccc(CNC(=O)Cn2cccc2C(=O)c2ccccc2C)cc1`, for which the AC50 under setting [1] is 15.8 µM [falling, partial curve].

For the compound `N#Cc1c[nH]n2c(NC3CCCC3)c(-c3ccc(Cl)cc3)nc12`, the concentration at half-maximal activity (AC50) under setting [1] was 31.6 µM [falling, single point].

For the compound `COc1ccc(C2N(c3cc(Cl)ccc3OC)C(=O)C3CCCN32)c(OC)c1` (configuration not stated), under setting [1], the AC50 was 6.31 µM [rising, single point] [measured here: IkB-luc green channel].

As for `Cc1ccc(NS(=O)(=O)c2ccc(-c3cc(C)no3)cc2)c(Br)c1`, the AC50 under setting [1] was 7.94 µM [falling, partial curve].

`Cc1ccc(CCNC(=O)c2c(C)nn(-c3ccc(F)cc3)c2-n2cccc2)cc1`: the AC50 under setting [1] was 25.1 µM [falling, single point].

Turning to `CC1=C(C(=O)Nc2ccccc2)C(c2ccc(O)cc2)n2nc(SCc3ccccc3)nc2N1` (configuration not stated), the AC50 under setting [1] is 7.94 µM [falling, single point].

As for `CCOc1ccccc1NC(=O)N1CCC2(CC1)Oc1ccccc1C(=O)N2Cc1ccccc1F`, the half-maximal activity concentration (AC50) under setting [1] is 12.6 µM [falling, partial curve].

For the compound `CCOC(=O)N1CCN(S(=O)(=O)c2ccc(OCC)c(C)c2)CC1`, the concentration at half-maximal activity (AC50) under setting [1] is 12.6 µM [falling, partial curve].

On to `COCCn1c(=O)cnc2cnc(Nc3ccccc3)nc21`, for which the half-maximal activity concentration (AC50) by setting is: under setting [2], 3.98 µM [falling, partial curve]; under setting [3], 3.98 µM [falling, partial curve].

Take `Cc1ccc(OCC(=O)Nc2cccc(C(=O)OCc3cc(=O)n4c(C)csc4n3)c2)cc1`: the AC50 under setting [1] was 2.51 µM [falling, full curve].

In the case of `CC(=O)c1ccc(N2CCN(c3ncnc4c3cnn4-c3cc(Cl)ccc3C)CC2)cc1`, the AC50 under setting [1] is 6.31 µM [falling, partial curve].

As to `O=C(c1ccc2c(c1)N(Cc1ccc(Cl)cc1)C(=O)c1ccccc1S2(=O)=O)N1CCN(c2ccccn2)CC1`, under setting [1], the concentration at half-maximal activity (AC50) is 7.94 µM [falling, full curve, poor fit].

For the compound `Cn1cccc1C(=O)Nc1nc(-c2ccccn2)cs1`, the AC50 under setting [1] is 3.16 µM [falling, full curve].

`O=C(Nc1cc(Cl)cc(Cl)c1)c1ccc(F)c(S(=O)(=O)N2CCN(c3ccccc3F)CC2)c1`: the AC50 under setting [1] was 15.8 µM [falling, partial curve].

As usually defined, the AC50 is the concentration at which the activity in the assay is half-maximal.

For the origin of these results see PubChem BioAssay AID445 (National Center for Advancing Translational Sciences (NCATS), 2006).
